# Results taken from PubChem BioAssay AID248 (DTP/NCI, 2004).
# The list is a part of this screen's results and no random one: it gathers tests that were run many times, whatever their T/C, doses with no T/C, and many T/C values between a quarter and a half above the control. Other doses and runs of a compound stand elsewhere. T/C is the treated group as % of the vehicle group. Some entries give survivors of the animals treated and no T/C: the source holds a T/C of zero for them, seemingly a mark for toxic or unscored doses. Some survivor counts are full or nearly so, which does not show that the dose was tolerated: survival well below the control is almost never listed, so the zero probably covers shortened survival too. Survivors were counted at the toxicity check, usually on the fifth day, unless a day is given; later deaths do not show. Schedules are NCI's codes, read here as Q, the interval in days (D) or hours (H), X, the number of doses. Some schedule codes hold Z or #, which are not explained here. Where survival is the endpoint, this PubChem deposit counts one and a half times the control or more as active, and values a quarter to a half above the control carry no call in these data; other NCI protocols may use other cut-offs.
# Test system: L1210 leukemia ip in BDF1 mice, survival T/C
# Assay: NCI In Vivo Anticancer Drug Screen. Data for tumor model L1210 Leukemia (intraperitoneal) in B6D2F1 (BDF1) mice
# Conditions: T/C endpoint: mean survival time, higher T/C = longer survival
# [1] = dose: 50.0 mg/kg/injection, schedule: Q01DX009 (ip), vehicle: saline with Tween-80
# [2] = dose: 200.0 mg/kg/injection, schedule: Q04DX002 (ip), vehicle: saline with Tween-80
# [3] = dose: 400.0 mg/kg/injection, schedule: Q04DX002 (ip), vehicle: saline with Tween-80
# [4] = dose: 400.0 mg/kg/injection, schedule: Q01DX009 (ip), vehicle: Klucel (hydroxypropylcellulose) (HPC)
# [5] = dose: 150.0 mg/kg/injection, schedule: Q01DX001 (ip), vehicle: saline
# [6] = dose: 300.0 mg/kg/injection, schedule: Q01DX001 (ip), vehicle: saline
# [7] = dose: 100.0 mg/kg/injection, schedule: Q01DX009 (ip), vehicle: Klucel (hydroxypropylcellulose) (HPC)
# [8] = dose: 10.0 mg/kg/injection, schedule: Q01DX009 (ip), vehicle: saline with Tween-80
# [9] = dose: 20.0 mg/kg/injection, schedule: Q01DX001 (ip), vehicle: saline
# [10] = dose: 40.0 mg/kg/injection, schedule: Q01DX001 (ip), vehicle: saline
# [11] = dose: 80.0 mg/kg/injection, schedule: Q01DX001 (ip), vehicle: saline
smiles,measurement,setting,value
O=C(C[n+]1ccccc1)N/N=C/c1ccccc1O,survivor count,[1],3 of 3
same,survivor count,"dose: 100.0 mg/kg/injection, schedule: Q01DX009 (ip), vehicle: saline with Tween-80",3 of 3
same,survivor count,"dose: 200.0 mg/kg/injection, schedule: Q01DX009 (ip), vehicle: saline with Tween-80",3 of 3
OC[CH2][Sb]([Cl])([Cl])([c]1ccccc1)[c]1ccccc1,survivor count,"dose: 100.0 mg/kg/injection, schedule: Q04DX002 (ip), vehicle: saline with Tween-80",0 of 3
same,survivor count,[2],0 of 3
same,survivor count,[3],0 of 3
Cc1nc(N)nc(N)c1Oc1ccc(Cl)cc1,survivor count,"dose: 240.0 mg/kg/injection, schedule: Q01DX Z (ip), vehicle: saline",3 of 6
COc1ccc(NC(=O)c2c(Br)c(Br)c(Br)c(Br)c2C(=O)O)c(Cl)c1,survivor count,[4],2 of 6
Cc1cc(OC(=O)N(C)C)n(-c2ccccc2)n1,survivor count,"dose: 75.0 mg/kg/injection, schedule: Q01DX001 (ip), vehicle: saline",0 of 6
same,survivor count,[5],0 of 6
same,survivor count,[6],0 of 6
Cc1cc(C)cc(OCC2C(COC(=O)c3cccc(Cl)c3)c3ccccc3N2C)c1 (stereo unspecified),survivor count,[4],4 of 6
O=C(CNC(=O)Nc1nccs1)N/N=C/c1cccc([N+](=O)[O-])c1,survivor count,[7],6 of 6
same,survivor count,[4],6 of 6
c1cc2c(cc1CNC1CCCCC1)OCO2,survivor count,[5],2 of 6
same,survivor count,[6],1 of 6
Cc1cc(N=Cc2cccc([N+](=O)[O-])c2O)c2ccccc2n1,survivor count,"dose: 200.0 mg/kg/injection, schedule: Q01DX001 (ip), vehicle: other",0 of 4
same,survivor count,"dose: 400.0 mg/kg/injection, schedule: Q01DX001 (ip), vehicle: other",0 of 4
CC(=O)[O][Pb]([CH2]CC(C)C)([CH2]CC(C)C)[CH2]CC(C)C,survivor count,"dose: 3.12 mg/kg/injection, schedule: Q01DX009 (ip), vehicle: saline with Tween-80",6 of 6
same,survivor count,"dose: 3.12 mg/kg/injection, schedule: Q04DX002 (ip), vehicle: saline with Tween-80",0 of 3
same,survivor count,"dose: 4.6 mg/kg/injection, schedule: Q01DX009 (ip), vehicle: saline with Tween-80",5 of 6
same,survivor count,"dose: 6.25 mg/kg/injection, schedule: Q04DX002 (ip), vehicle: saline with Tween-80",1 of 3
same,survivor count,"dose: 7.0 mg/kg/injection, schedule: Q01DX009 (ip), vehicle: saline with Tween-80",0 of 6
same,survivor count,[8],1 of 6
same,survivor count,"dose: 12.5 mg/kg/injection, schedule: Q04DX002 (ip), vehicle: saline with Tween-80",1 of 3
same,survivor count,"dose: 100.0 mg/kg/injection, schedule: Q04DX002 (ip), vehicle: saline",1 of 3
same,survivor count,"dose: 200.0 mg/kg/injection, schedule: Q04DX002 (ip), vehicle: saline",0 of 3
same,survivor count,"dose: 400.0 mg/kg/injection, schedule: Q04DX002 (ip), vehicle: saline",2 of 3
CCc1c(N)nc(N)[nH]c1=O,T/C,"dose: 100.0 mg/kg/injection, schedule: Q01DX001 (ip), vehicle: Klucel (hydroxypropylcellulose) (HPC)",140 % of control
same,T/C,"dose: 400.0 mg/kg/injection, schedule: Q01DX001 (ip), vehicle: Klucel (hydroxypropylcellulose) (HPC)",136 % of control
CCCCNC(=O)Nc1cc(C)c(C)cc1C,survivor count,"dose: 100.0 mg/kg/injection, schedule: Q01DX009 (ip), vehicle: gum acacia",6 of 6
same,survivor count,"dose: 400.0 mg/kg/injection, schedule: Q01DX009 (ip), vehicle: gum acacia",4 of 6
COc1cc2c(c(OC)c1OC)-c1ccc(=O)c(N)cc1C(NC(C)=O)CC2 (stereo unspecified),T/C,"dose: 120.0 mg/kg/injection, schedule: Q01DX Z (ip), vehicle: carboxymethylcellulose (CMC)",125 % of control
Cc1cc([N+](=O)[O-])ccc1NC(=O)C(Br)C(Br)C(=O)O (stereo unspecified),survivor count,"dose: 200.0 mg/kg/injection, schedule: Q01DX009 (ip), vehicle: other",3 of 6
same,survivor count,"dose: 400.0 mg/kg/injection, schedule: Q01DX009 (ip), vehicle: other",0 of 6
OC1C=Cc2ccccc21 (stereo unspecified),survivor count,"dose: 400.0 mg/kg/injection, schedule: Q04DX002 (ip), vehicle: other",0 of 3
CCN=C=NCCCN(C)C,survivor count,"dose: 80.0 mg/kg/injection, schedule: Q01DX009 (ip), vehicle: saline",2 of 6
CC1(C)N=C(N)N=C(N)N1c1cccc(S(=O)(=O)F)c1,survivor count,"dose: 100.0 mg/kg/injection, schedule: Q01DX009 (ip), vehicle: saline",0 of 6
same,survivor count,"dose: 400.0 mg/kg/injection, schedule: Q01DX001 (ip), vehicle: saline",0 of 6
same,survivor count,"dose: 500.0 mg/kg/injection, schedule: Q01DX009 (ip), vehicle: saline",0 of 6
CCCCCCCCCCCCCCCCCC(=O)[O][Sn]([CH2]CCC)([CH2]CCC)[O]C(=O)CCCCCCCCCCCCCCCCC,survivor count,"dose: 25.0 mg/kg/injection, schedule: Q04DX003 (ip), vehicle: other",4 of 6
same,survivor count,"dose: 100.0 mg/kg/injection, schedule: Q04DX003 (ip), vehicle: other",1 of 6
CCOC(=O)CC(C)=O.[Cu+2],survivor count,"dose: 35.0 mg/kg/injection, schedule: Q01DX009 (ip), vehicle: Klucel (hydroxypropylcellulose) (HPC)",2 of 6
same,survivor count,"dose: 50.0 mg/kg/injection, schedule: Q04DX003 (ip), vehicle: Klucel (hydroxypropylcellulose) (HPC)",2 of 6
same,survivor count,"dose: 55.0 mg/kg/injection, schedule: Q01DX009 (ip), vehicle: Klucel (hydroxypropylcellulose) (HPC)",0 of 6
same,survivor count,"dose: 80.0 mg/kg/injection, schedule: Q01DX009 (ip), vehicle: Klucel (hydroxypropylcellulose) (HPC)",0 of 6
CN1CCN(C(=O)C(c2ccccc2)C2(O)CCCC2)CC1 (stereo unspecified),survivor count,[9],3 of 6
same,survivor count,[10],0 of 6
same,survivor count,[11],0 of 6
CCOC(=O)CCC(N)C(=O)OCC (stereo unspecified),survivor count,"dose: 200.0 mg/kg/injection, schedule: Q01DX001 (ip), vehicle: saline",4 of 4
same,survivor count,"dose: 400.0 mg/kg/injection, schedule: Q01DX009 (ip), vehicle: saline",2 of 6
N#C/C(=C\C=C\c1ccccc1)C(N)=O,survivor count,"dose: 400.0 mg/kg/injection, schedule: Q04DX003 (ip), vehicle: saline with Tween-80",3 of 6
C(#CC[P+](c1ccccc1)(c1ccccc1)c1ccccc1)C[P+](c1ccccc1)(c1ccccc1)c1ccccc1,survivor count,[7],0 of 6
same,survivor count,"dose: 200.0 mg/kg/injection, schedule: Q01DX009 (ip), vehicle: Klucel (hydroxypropylcellulose) (HPC)",0 of 6
same,survivor count,[4],0 of 6
COc1ccc(-c2cccc(-c3ccccc3)n2)cc1,survivor count,"dose: 200.0 mg/kg/injection, schedule: Q04DX003 (ip), vehicle: Klucel (hydroxypropylcellulose) (HPC)",2 of 6
same,survivor count,"dose: 400.0 mg/kg/injection, schedule: Q04DX003 (ip), vehicle: Klucel (hydroxypropylcellulose) (HPC)",0 of 6
COC1C(O)C(C)OC(OC2C(Oc3cccc4c(O)c5c(=O)oc6ccc(C)c7c(=O)oc(c34)c5c67)OC(C)C(O)C2O)C1O (stereo unspecified),T/C,[8],145 % of control
same,T/C,"dose: 12.5 mg/kg/injection, schedule: Q01DX009 (ip), vehicle: saline with Tween-80",134 % of control
same,T/C,"dose: 25.0 mg/kg/injection, schedule: Q01DX009 (ip), vehicle: saline with Tween-80",139 % of control
same,T/C,"dose: 40.0 mg/kg/injection, schedule: Q01DX009 (ip), vehicle: saline with Tween-80",136 % of control
same,T/C,[1],128 % of control
same,T/C,"dose: 80.0 mg/kg/injection, schedule: Q01DX009 (ip), vehicle: saline with Tween-80",133 % of control
same,survivor count,"dose: 100.0 mg/kg/injection, schedule: Q01DX009 (ip), vehicle: carboxymethylcellulose (CMC)",2 of 6
same,survivor count,"dose: 200.0 mg/kg/injection, schedule: Q01DX009 (ip), vehicle: carboxymethylcellulose (CMC)",0 of 6
BrCC1OCCCO1,T/C,[1],130 % of control
same,survivor count,[2],0 of 3
same,survivor count,[3],0 of 3
CNC(=O)O/N=C(/SC)C(C)C,survivor count,[9],1 of 6
same,survivor count,[10],0 of 6
same,survivor count,[11],0 of 6
